Results taken from PubChem BioAssay AID2685 (National Center for Advancing Translational Sciences (NCATS), 2010).
This is one part of the list. These are further read-outs of the screen, such as a control signal, another cell line or another target. No call is given for them. The list favours compounds with an active or inconclusive main result. Potencies come from curve fits of mixed quality, noted in brackets.

Test: qHTS Assay for Lipid Storage Modulators in Drosophila S3 Cells;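 on cell number change: cells counted by Cell Tracker Red CMTPX staining in the red channel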
Conditions: BODIPY lipid droplet fluorescence, 18-24 h; for cell number change: measured here: cell count max response, cells fed with added oleic acid
Summary of the method: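 Drosophila S3 cells got compounds at several concentrations plus oleic acid (400 uM solution). Laser-scanning cytometry with 488 nm excitation read lipid droplets at 500-530 nm and cells at 575-640 nm. Percent activity was relative to 20 uM Triacsin C.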

[1] = measured here: cell number channel AC50, cells fed with added oleic acid
[2] = measured here: lipid fluorescence (Fed channel) AC50, cells fed with added oleic acid

Row | SMILES | cell number change [%] | AC50 [1] | AC50 [2]
1 | O=C(O)[C@@H]1[C@@H]2C[C@@H]2CN1c1ncccc1[N+](=O)[O-] | 100 | 18.4 µM [rising, single point] | 
2 | O=C1CCCN2N=C(SCC(=O)Nc3nc4ccccc4s3)SC2=N1 | 6.35 |  | 0.0058 µM [falling, full curve, poor fit]
3 | O=C(NC(=O)c1ccccc1)OCC1CCCN2CCCCC12 (configuration not stated) | -12.4 |  | 
4 | CCCN(CC(=O)Nc1ccccc1C)C(=O)c1sc2ccccc2c1Cl | 4.35 |  | 2.91 µM [falling, partial curve, poor fit]
5 | COC(=O)c1cn(C(=O)c2ccc(OC)cc2)c2ccccc12 | -4.69 |  | 1.64 µM [rising, partial curve, poor fit]
6 | COc1cccc(CN(CC(=O)NCc2ccccc2)S(=O)(=O)CCl)c1 | 7.86 |  | 
7 | O=C(N/N=C1\CC2CC=CC12)c1ccc(Br)cc1 (configuration not stated) | 7.09 |  | 
8 | O=C(/C=C/c1ccc2c(c1)OCO2)NCCS(=O)(=O)N1CCN(c2ccc(F)cc2)CC1 |  |  | 0.164 µM [rising, full curve, poor fit]
9 | COc1cccc2cc(S(=O)(=O)c3ccccc3)c(=Nc3ccc4c(c3)OCCO4)oc12 | -21.2 | 0.00411 µM [rising, full curve, poor fit] | 0.411 µM [rising, full curve, poor fit]
10 | CCc1ccccc1NC(=O)CSc1ccsc1[N+](=O)[O-] | 13.2 |  | 6.51 µM [rising, single point]
11 | COc1ccc(C2c3c(ccc4ccccc34)Oc3ncn4nc(Cc5ccccc5)nc4c32)cc1OC (configuration not stated) |  | 1.3 µM [rising, full curve, poor fit] | 
12 | CCCOC(=O)c1ccc(NC(=O)CCC(=O)OCC)cc1 | -1.49 |  | 0.13 µM [falling, full curve, poor fit]
13 | COc1cccc(C=Nc2cc(C)on2)c1O | 0.947 |  | 25.9 µM [falling, single point]
14 | Cc1ccc(CCNS(=O)(=O)c2ccc3c(c2)NC(=O)C(C)C(=O)N3)cc1 (configuration not stated) | 21.3 |  | 18.4 µM [rising, single point]
15 | COc1ccc(/C=N/N(C)C2=NCCN2)c(OC)c1OC | 7.09 | 0.731 µM [falling, single point] | 0.58 µM [falling, single point]
16 | Cc1onc(-c2ccccc2)c1CNC(=O)CN1C(=O)c2ccccc2C1=O | -24.2 |  | 16.4 µM [falling, partial curve]
17 | Cc1noc(C)c1COC(=O)[C@@H](NC(=O)c1ccccc1Cl)C(C)C | 23.1 | 0.092 µM [rising, full curve, poor fit] | 
18 | CCN(CC)S(=O)(=O)c1ccc(N)cc1 | 16.3 |  | 29.1 µM [rising, single point]
19 | O=c1cc(-c2ccccc2)nc(SCc2ccccc2)[nH]1 | -84 | 29.1 µM [falling, partial curve, poor fit] | 29.1 µM [falling, partial curve, poor fit]
20 | CCN(CC)c1ccc(/C=C/c2cccc[n+]2C)c(OC)c1 | -94.6 | 14.6 µM [falling, partial curve] | 1.64 µM [falling, full curve]

Row | SMILES | cell number change [%] | AC50 [1] | AC50 [2]
21 | CC(=O)Nc1ccc(S(=O)(=O)N2CCC(C(=O)c3ccc(Cl)cc3)CC2)cc1 | 10.4 |  | 
22 | O=C1CC(c2ccco2)c2ccc3ccccc3c2N1 (configuration not stated) | -11.1 |  | 6.51 µM [rising, single point]
23 | Cc1nc2ccccc2c(=O)n1NC(=O)/C=C/c1ccccc1Cl | 8.63 |  | 14.6 µM [rising, partial curve, poor fit]
24 | CS(=O)(=O)N1CCN(C2CCN(Cc3ccccc3)CC2)CC1 | -0.469 |  | 29.1 µM [falling, single point]
25 | CCCCCNCc1cccn1C | -18.4 |  | 
26 | Cc1ccc(NC(=O)CC(N)=S)cc1 | 11.5 |  | 23.1 µM [falling, single point]
27 | O=[N+]([O-])c1cnc(Nc2ccc(Cl)cn2)c([N+](=O)[O-])c1 | -15.9 |  | 18.4 µM [falling, single point]
28 | CCOCCCNC(=O)C(NC(=O)Cc1cccs1)c1ccccc1 (configuration not stated) | 34 | 13 µM [rising, single point] | 18.4 µM [rising, single point]
29 | CCOc1ccccc1NC(=O)CNC(=O)Cc1ccccc1 | 40.6 | 29.1 µM [rising, partial curve, poor fit] | 25.9 µM [rising, partial curve]
30 | O=C(Nc1ccc2cn[nH]c2c1)c1ccccc1F | 28.9 |  | 0.92 µM [rising, partial curve, poor fit]
31 | COc1ccc(OCC(=O)Nc2ccc(N3CCOCC3)cc2)cc1 | 3.78 |  | 0.206 µM [rising, full curve]
32 | CC1(C)Cc2ccccc2-c2nnc(SCC(=O)N3CCN(c4ccccc4)CC3)n21 | -11.2 |  | 
33 | CCc1ccc(N2CC(C(=O)OCC(=O)Nc3ccc([N+](=O)[O-])cc3)CC2=O)cc1 (configuration not stated) | 19.4 |  | 29.1 µM [rising, single point]
34 | Cn1c(=O)[nH]c(=O)c2c1nc(N)n2Cc1ccccc1 | 80.1 | 25.9 µM [rising, partial curve] | 
35 | CCOc1c(C)cnc2c1c(=O)n(Cc1ccc(Cl)cc1)c(=O)n2C | 19.9 |  | 29.1 µM [rising, single point]
36 | O=C1NCCN(Cc2c(F)cccc2Cl)C1CC(=O)N1CCCCO1 (configuration not stated) | 14.3 |  | 
37 | O=C(c1ccccc1)c1ccccc1N1C(=O)C=CC1=O | -65.7 | 5.8 µM [falling, full curve] | 6.51 µM [falling, full curve]
38 | CCCc1c(C)c2ccc(OCC(C)=O)cc2oc1=O | 32.9 | 0.82 µM [rising, full curve, poor fit] | 
39 | O=C(CCS(=O)(=O)Cc1ccccc1)Nc1ncc([N+](=O)[O-])s1 | 10.1 |  | 1.84 µM [rising, partial curve]
40 | CCOC(=O)c1c(NC2=NS(=O)(=O)c3ccccc32)sc2c1CCC(C)C2 (configuration not stated) | -7.57 | 0.103 µM [falling, full curve, poor fit] | 

Row | SMILES | cell number change [%] | AC50 [1] | AC50 [2]
41 | CCCCOC(=O)c1cc(C)nc2ccc(Br)cc12 | -11.9 |  | 5.17 µM [rising, single point]
42 | CN(CCc1ccccn1)C(=O)CCC1CCCN(C(=O)c2cccc(N(C)C)c2)C1 (configuration not stated) | -36.4 |  | 
43 | C[C@@H](C(=O)Nc1ccccc1N1CCOCC1)N1C(=O)C2CC=CCC2C1=O (some centres not stated) | 62.2 | 18.4 µM [rising, partial curve] | 
44 | COc1ccc(CN2CCC(=O)N([C@H](CO)Cc3ccccc3)CC2)cc1 | 21.3 |  | 29.1 µM [falling, single point]
45 | CCN(Cc1nc2ccccc2c(=O)[nH]1)C(=O)CN1C(=O)NC2(CCCCC2C)C1=O (configuration not stated) | -1.75 |  | 4.61 µM [rising, partial curve, poor fit]
46 | COc1ccc(CCc2nnc(NS(C)(=O)=O)s2)cc1 | -13.2 |  | 
47 | O.O.O.O=S(=O)([O-])OC[C@H]1O[C@@H](O[C@]2(COS(=O)(=O)[O-])O[C@H](OS(=O)(=O)[O-])[C@@H](OS(=O)(=O)[O-])[C@@H]2OS(=O)(=O)[O-])[C@H](OS(=O)(=O)[O-])[C@@H](OS(=O)(=O)[O-])[C@@H]1OS(=O)(=O)[O-].[Al] | 29.8 |  | 0.146 µM [rising, full curve, poor fit]
48 | COC(C(=O)NC1CCCCCCC1)c1ccccc1 (configuration not stated) | -2.12 |  | 
49 | COC(=O)CC1C(=O)NCCN1C(=O)c1ccccc1 (configuration not stated) | -13.7 | 6.51 µM [falling, single point] | 16.4 µM [falling, single point]
50 | CNC(=O)CSc1nc(SC)ns1 |  | 2.91 µM [falling, single point] | 5.17 µM [falling, single point]
51 | O=C1CN(C(=O)COC(=O)c2oc3ccccc3c2COc2ccccc2)c2ccccc2N1 |  | 1.16 µM [rising, full curve, poor fit] | 0.58 µM [rising, full curve]
52 | O=C(O)CCSCCC(=O)O | 8.39 | 0.259 µM [falling, full curve, poor fit] | 
53 | Cc1ccc(-n2c(N)c(C#N)c(-c3ccccc3)c(C#N)c2=O)cc1 | -32.2 | 4.11 µM [falling, full curve, poor fit] | 23.1 µM [falling, partial curve]
54 | CCCc1nn(C)c2c1C(c1ccncc1)C(C#N)=C(N)O2 (configuration not stated) | 1.72 |  | 
55 | CCCCNC(=S)N1CCN(c2ccccc2Cl)CC1 | 15.4 |  | 0.731 µM [rising, full curve, poor fit]
56 | Cc1noc(C)c1-c1nc(CSc2ccc(Cl)cc2)no1 | -54.4 | 29.1 µM [falling, single point] | 29.1 µM [falling, single point]
57 | Cc1ccc(N2C(=O)c3ccc(N)cc3C2=O)cc1 | -8.73 |  | 5.17 µM [rising, full curve, poor fit]
58 | C[C@@H](NC(=O)c1ncn(C)c1C(=O)N[C@H](C)c1ccccc1)c1ccccc1 | -30.9 | 29.1 µM [falling, single point] | 29.1 µM [falling, single point]
59 | COc1ccccc1CNC(=O)[C@H](C)NC(=O)[C@@H]1Cc2ccccc2CN1 | -16 |  | 
60 | C/C(=N\NC(N)=S)C1C2C3CC4C5CC(C42)C1C53 (configuration not stated) | -34 |  | 29.1 µM [falling, single point]

Among those listed so far, these contain a nitro group on carbon:
Row | SMILES | cell number change [%] | AC50 [1] | AC50 [2]
1 | O=C(O)[C@@H]1[C@@H]2C[C@@H]2CN1c1ncccc1[N+](=O)[O-] | 100 | 18.4 µM [rising, single point] | 
10 | CCc1ccccc1NC(=O)CSc1ccsc1[N+](=O)[O-] | 13.2 |  | 6.51 µM [rising, single point]
27 | O=[N+]([O-])c1cnc(Nc2ccc(Cl)cn2)c([N+](=O)[O-])c1 | -15.9 |  | 18.4 µM [falling, single point]
33 | CCc1ccc(N2CC(C(=O)OCC(=O)Nc3ccc([N+](=O)[O-])cc3)CC2=O)cc1 (configuration not stated) | 19.4 |  | 29.1 µM [rising, single point]
39 | O=C(CCS(=O)(=O)Cc1ccccc1)Nc1ncc([N+](=O)[O-])s1 | 10.1 |  | 1.84 µM [rising, partial curve]
